Results are given in words; binding and its absence hold for the method and conditions named. Binding can be weak; no strength is given.
Tests used:
[1] = target: bovine PD-1 on bovine PD-1 expressing cells (CHO-DG44, pCMV-Tag1-boPD-1) (bovine); test: flow cytometry on bovine PD-1 expressing cells, 0.001 to 100 µg/ml, detection with Alexa Fluor 647-labeled anti-bovine IgG (H+L) goat F(ab')2
[2] = target: bovine PD-1 on bovine PD-1 expressing cells (CHO-DG44, pCMV-Tag1-boPD-1) (bovine); test: flow cytometry on bovine PD-1 expressing cells
[3] = target: bovine PD-L1 on bovine PD-L1 expressing cells (CHO-DG44, pEGFP-N2-boPD-L1) (bovine); test: flow cytometry on bovine PD-L1 expressing cells, detection with APC-labeled anti-rat Ig goat antibody
[4] = target: bovine PD-L1 on bovine PD-L1 expressing cells (CHO-DG44, pEGFP-N2-boPD-L1) (bovine); test: blocking assay by flow cytometry: bovine PD-L1 expressing cells pre-incubated with the antibody, then biotinylated bovine PD-1-Ig (2 µg/ml), detection with APC-streptavidin; blocked ligand: bovine PD-1-Ig
[5] = target: bovine PD-L1 on bovine PD-L1 expressing cells (CHO-DG44, pEGFP-N2-boPD-L1) (bovine); test: flow cytometry on bovine PD-L1 expressing cells

binding [1]	binding [2]	binding [3]	binding [4]	binding [5]	Binder
binds	binds				rat-bovine chimeric anti-bovine PD-1 antibody ch5D2 (mutated bovine IgG1, IgG1 ADCC-) (antibody) heavy: QVQLKETGPGLVQPTQTLSITCTVSGFSLTSYYIQWVRQTPGKGLEWMGFIRSGGSTEYNSEFKSRLSINRDTSKNQVFLKMNSLKTEDTGVYYCARTSSGYEGGFDYWGQGVMVTVSSASTTAPKVYPLSSCCGDKSSSTVTLGCLVSSYMPEPVTVTWNSGALKSGVHTFPAVLQSSGLYSLSSMVTVPGSTSGQTFTCNVAHPASSTKVDKAVDPTCKPSPCDCCPPPPVAGPSVFIFPPKPKDTLTISGTPEVTCVVVDVGHDDPEVKFSWFVDDVEVNTATTKPREEQFNSTYRVVSALRIQHQDWTGGKEFKCKVHNEGLPSSIVRTISRTKGPAREPQVYVLAPPQEELSKSTVSLTCMVTSFYPDYIAVEWQRNGQPESEDKYGTTPPQLDADSSYFLYSKLRVDRNSWQEGDTYTCVVMHEALHNHYTQKSTSKSAGK light: DVVLTQTPVSLSVTLGDQASISCRSSQSLEYSDGYTYLEWYLQKPGQSPQLLIYGVSNRFSGVPDRFIGSGSGTDFTLKISRVEPEDLGVYYCFQATHDPDTFGAGTKLELKQPKSPPSVTLFPPSTEELNGNKATLVCLISDFYPGSVTVVWKADGSTITRNVETTRASKQSNSKYAASSYLSLTSSDWKSKGSYSCEVTHEGSTVTKTVKPSECS
		binds	binds	binds	rat anti-bovine PD-L1 monoclonal antibody 4G12 (antibody, V domains shown) VH: QVQLQQSGAELVKPGSSVKISCKASGYTFTSNFMHWVKQQPGNGLEWIGWIYPEYGNTKYNQKFDGKATLTADKSSSTAYMQLSSLTSEDSAVYFCASEEAVISLVYWGQGTLVTVSS VL: DIAITQSPSSVAVSVGETVTLSCKSSQSLLYSENQKDYLGWYQQKPGQTPKPLIYWATNRHTGVPDRFTGSGSGTDFTLIISSVQAEDLADYYCGQYLVYPFTFGPGTKLELK

Reference: patent US20250066483A1
